# Measured values from publication PMC11464529.
# Protein sequences, listed by entry. Tags and fused reporters are not part of them.
# UniProt Q9NZJ0: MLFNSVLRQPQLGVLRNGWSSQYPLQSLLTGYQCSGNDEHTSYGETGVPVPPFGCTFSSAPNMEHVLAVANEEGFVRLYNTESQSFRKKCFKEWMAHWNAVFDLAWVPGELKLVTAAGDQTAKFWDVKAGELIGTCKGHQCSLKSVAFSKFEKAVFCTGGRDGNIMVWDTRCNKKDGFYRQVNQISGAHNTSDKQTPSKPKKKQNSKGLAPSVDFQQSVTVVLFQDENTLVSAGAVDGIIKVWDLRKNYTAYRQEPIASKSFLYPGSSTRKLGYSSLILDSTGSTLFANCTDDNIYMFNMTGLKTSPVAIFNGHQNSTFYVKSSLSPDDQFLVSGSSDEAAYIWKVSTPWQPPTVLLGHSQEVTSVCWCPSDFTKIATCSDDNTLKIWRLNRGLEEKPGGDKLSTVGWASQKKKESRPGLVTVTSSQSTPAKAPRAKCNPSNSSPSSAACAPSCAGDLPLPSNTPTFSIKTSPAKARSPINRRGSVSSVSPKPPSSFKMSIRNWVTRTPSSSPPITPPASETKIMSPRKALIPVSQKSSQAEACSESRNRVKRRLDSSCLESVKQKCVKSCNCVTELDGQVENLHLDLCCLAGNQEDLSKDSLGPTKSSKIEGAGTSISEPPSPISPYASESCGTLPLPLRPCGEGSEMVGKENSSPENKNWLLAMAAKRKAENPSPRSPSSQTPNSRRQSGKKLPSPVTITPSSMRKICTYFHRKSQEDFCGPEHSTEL
# UniProt Q9NWH9: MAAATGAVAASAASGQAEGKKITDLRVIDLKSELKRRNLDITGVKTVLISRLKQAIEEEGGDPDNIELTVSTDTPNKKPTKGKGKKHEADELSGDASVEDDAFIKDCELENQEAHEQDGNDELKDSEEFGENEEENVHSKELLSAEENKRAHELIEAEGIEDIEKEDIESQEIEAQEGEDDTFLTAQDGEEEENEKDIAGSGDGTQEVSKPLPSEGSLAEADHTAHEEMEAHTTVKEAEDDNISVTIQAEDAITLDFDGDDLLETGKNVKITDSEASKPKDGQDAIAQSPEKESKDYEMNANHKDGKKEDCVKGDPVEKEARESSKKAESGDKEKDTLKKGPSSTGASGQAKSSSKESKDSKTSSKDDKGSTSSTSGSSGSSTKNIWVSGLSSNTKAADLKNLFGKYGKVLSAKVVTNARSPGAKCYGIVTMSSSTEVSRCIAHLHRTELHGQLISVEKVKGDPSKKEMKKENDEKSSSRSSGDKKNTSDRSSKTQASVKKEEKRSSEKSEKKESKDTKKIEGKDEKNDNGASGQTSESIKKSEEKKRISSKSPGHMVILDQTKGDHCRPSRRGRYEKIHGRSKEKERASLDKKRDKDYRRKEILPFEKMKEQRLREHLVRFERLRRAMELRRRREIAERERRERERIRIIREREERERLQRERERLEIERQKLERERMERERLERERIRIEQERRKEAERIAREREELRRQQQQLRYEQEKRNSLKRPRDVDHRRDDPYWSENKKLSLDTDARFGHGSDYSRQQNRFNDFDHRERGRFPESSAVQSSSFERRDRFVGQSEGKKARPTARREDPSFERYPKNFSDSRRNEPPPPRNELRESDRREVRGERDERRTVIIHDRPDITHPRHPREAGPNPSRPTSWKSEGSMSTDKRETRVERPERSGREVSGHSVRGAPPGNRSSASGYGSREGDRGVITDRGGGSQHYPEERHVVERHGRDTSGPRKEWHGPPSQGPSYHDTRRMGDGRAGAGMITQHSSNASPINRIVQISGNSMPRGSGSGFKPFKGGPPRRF
# Target: 3xFlag-tagged DTL (Denticleless E3 ubiquitin protein ligase homolog) (human) (UniProt Q9NZJ0)
# Assay: affinity purification with mass spectrometry; lysate of Huh-7 cells stably expressing 3xFlag-DTL, IP with anti-FLAG antibody, elution, tryptic digestion, LC-MS/MS; weak lysis buffer, antibody overnight at 4 °C, Protein A + G beads 4 h at 4 °C
substance,measurement,value
"SAFB-like transcription modulator (SLTM), endogenous (from UniProt Q9NWH9 1-1034)",binding,binds

# Results are given in words; binding and its absence hold for the method and conditions named. In cells and extracts the contact can be indirect. Here binding means that the protein was enriched with, or labelled near, the bait; the list need not be complete.
